From PubChem BioAssay AID504467 (National Center for Advancing Translational Sciences (NCATS), 2011)
The whole screen tested about 330,000 compounds, of which about 7,700 (2.3%) were called active. The inconclusive results got no clear call from the source; some entries with a clear call stand among them for comparison. Calls follow the shape of the dose curve; as a rule, active = well fitted inhibition curve with a large enough effect; inconclusive = small, poorly fitted or top-dose-only effect, or effect the other way; inactive = flat fitted curve, though single readings scatter. Where the call is inconclusive, the potency comes from a doubtful curve fit.

experiment: qHTS screen for small molecules that inhibit ELG1-dependent DNA repair in human embryonic kidney (HEK293T) cells expressing luciferase-tagged ELG1; conditions: HEK293T ELG1-luciferase reporter, luminescence, 16 h, DNA damage induced by 5-fluorouridine; activity change, negative = inhibition: at 46.1 µM (top of the series); also: nearly all actives have a fitted effect of over 55% in size
In short: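 Reporter activity after DNA damage by 5-fluorouridine is monitored. Compound-treated cells incubate 16 hr at 37 °C, then ONE-Glo is added for 30 min before luminescence reading.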
% is scaled to controls: 0 for no effect and ±100 for the full control effect; potency is read from the fitted curve at half-maximal effect.

Row | SMILES | Potency | activity change, negative = inhibition
1 | CCCCOc1ccc(C(=O)Nc2ccncc2)cc1 | inconclusive: 29.1 µM [activator, single point] | 
2 | COc1ccc(C(CNC(=O)c2cc(SC)ccc2Cl)N(C)C)cc1 (stereo not drawn) | inconclusive: 32.6 µM [inhibitor, partial curve, poor fit] | 
3 | O=C(Nc1nnc(-c2ccc3c(c2)CCCC3)o1)c1ccccc1Cl | inconclusive: 14.6 µM [activator, partial curve, poor fit] | 
4 | Cc1cccc(N2C(=O)C3CCCN3C2=S)c1 (stereo not drawn) |  | inactive: -2.14%
5 | O=C(Nc1ccon1)c1cccc(S(=O)(=O)N2CCCCC2)c1 | inconclusive: 20.6 µM [inhibitor, partial curve] | 
6 | COC(=O)c1cc(NS(=O)(=O)c2ccc(C)c3ccccc23)ccc1N1CCOCC1 | inconclusive: 13 µM [inhibitor, partial curve] | 
7 | O=C(N/N=C/C=C/c1ccccc1)c1ccncc1 | inconclusive: 20.6 µM [activator, single point] | 
8 | CCOC(=O)c1c(/N=C/c2cccc([N+](=O)[O-])c2O)sc2c1CCC2 |  | inactive: 10.6%
9 | Cc1cc(-n2cnc(-c3cn(C)nc3C)n2)no1 | inconclusive: 16.4 µM [activator, single point] | 
10 | CCN(CC)S(=O)(=O)c1ccc(NC(=S)Nc2ccc(F)cc2)cc1 | inconclusive: 4.61 µM [inhibitor, partial curve, poor fit] | 
11 | CSCC[C@H](NC(=O)CCCn1nnc2ccccc2c1=O)C(=O)O | inconclusive: 20.6 µM [activator, single point] | 
12 | CCc1ccc(Nc2nnc(SCC(=O)N(C)C3CCS(=O)(=O)C3)s2)cc1 (stereo not drawn) | inconclusive: 5.8 µM [activator, full curve] | 
13 | CCCN1C=CC(=CC=C(C#N)C#N)C=C1 | inconclusive: 23.1 µM [inhibitor, single point] | 
14 | CCc1c(C)nc(N)n2c(SCC(=O)Nc3ccccc3OC)nnc12 | inconclusive: 3.26 µM [inhibitor, partial curve, poor fit] | 
15 | COCc1cc(C)nc(OCC(=O)N/N=C/c2ccc(O)cc2)c1C#N | inconclusive: 29.1 µM [inhibitor, partial curve, poor fit] | 
16 | COc1cc(OC)cc(C(=O)N[C@H](C(=O)Nc2nc(-c3cc(OC)ccc3OC)cs2)C(C)C)c1 | active: 20.6 µM | 
17 | O=C(O)c1ccc(S(=O)(=O)NC2CCCCCC2)cc1 |  | inactive: 16.5%
18 | COC(=O)C1=C(C)N=C2SCCC(=O)N2C1c1cc(Br)ccc1OC (stereo not drawn) | inconclusive: 18.4 µM [inhibitor, partial curve, poor fit] | 

2 entries drawn at random from those above:
Row | SMILES | Potency | activity change, negative = inhibition
14 | CCc1c(C)nc(N)n2c(SCC(=O)Nc3ccccc3OC)nnc12 | inconclusive: 3.26 µM [inhibitor, partial curve, poor fit] | 
9 | Cc1cc(-n2cnc(-c3cn(C)nc3C)n2)no1 | inconclusive: 16.4 µM [activator, single point] | 
